# Results as given in paper PMC12013513.
# Chains of the proteins cited; added tags and fusions are not shown. Lines headed by an entry give the natural chain unless they say otherwise; changes in a name come on top. A line that says so, or that is headed by a name, gives the form on record, which may keep a tag or linker. Residues count along the entry.
# 10xHis-RHO-1^Q63L (constitutively active RHO-1, 1-188 AA) (Q22038, form named): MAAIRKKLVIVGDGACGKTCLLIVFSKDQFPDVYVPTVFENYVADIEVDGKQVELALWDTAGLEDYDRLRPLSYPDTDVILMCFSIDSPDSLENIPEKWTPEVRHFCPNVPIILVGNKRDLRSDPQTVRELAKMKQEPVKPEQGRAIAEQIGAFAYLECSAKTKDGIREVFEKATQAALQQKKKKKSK
# Results are given in words; binding and its absence hold for the method and conditions named. Where a sequence is shown, tags or fusion partners need not be part of it.
# Key:
# [1] = biological target: T1, GST-ANI-1^C-term-RBM (681-1159 AA, A789D, E807K) (C. elegans) (UniProt Q9XTT4); assay: pull-down; ~4 μg GST-ANI-1 fragment on Glutathione Sepharose beads mixed with ~4 μg purified 10xHis-RHO-1 in 300 μl binding buffer (20 mM Tris pH 7.4, 150 mM NaCl, 5 mM MgCl2, 0.1% Triton X-100, 1 mM DTT) with 1 mM GTP, 4°C, 1.5 h; bound RHO-1 detected by anti-His immunoblot; both purified
# T1 sequence: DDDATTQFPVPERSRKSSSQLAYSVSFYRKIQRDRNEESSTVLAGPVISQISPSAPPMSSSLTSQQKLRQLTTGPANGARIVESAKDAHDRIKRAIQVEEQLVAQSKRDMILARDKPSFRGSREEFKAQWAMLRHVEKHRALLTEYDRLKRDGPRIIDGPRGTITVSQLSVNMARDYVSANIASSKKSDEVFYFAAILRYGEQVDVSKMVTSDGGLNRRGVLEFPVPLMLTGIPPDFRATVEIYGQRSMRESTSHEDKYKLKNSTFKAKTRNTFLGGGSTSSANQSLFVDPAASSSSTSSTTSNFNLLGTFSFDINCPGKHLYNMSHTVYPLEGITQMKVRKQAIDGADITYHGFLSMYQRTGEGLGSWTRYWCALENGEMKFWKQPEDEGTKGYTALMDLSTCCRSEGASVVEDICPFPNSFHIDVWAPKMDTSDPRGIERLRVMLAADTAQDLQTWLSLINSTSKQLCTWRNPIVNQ
# [2] = biological target: T2, GST-ANI-1^Linker (460-775 AA) (C. elegans) (UniProt Q9XTT4); assay: as above
# T2 sequence: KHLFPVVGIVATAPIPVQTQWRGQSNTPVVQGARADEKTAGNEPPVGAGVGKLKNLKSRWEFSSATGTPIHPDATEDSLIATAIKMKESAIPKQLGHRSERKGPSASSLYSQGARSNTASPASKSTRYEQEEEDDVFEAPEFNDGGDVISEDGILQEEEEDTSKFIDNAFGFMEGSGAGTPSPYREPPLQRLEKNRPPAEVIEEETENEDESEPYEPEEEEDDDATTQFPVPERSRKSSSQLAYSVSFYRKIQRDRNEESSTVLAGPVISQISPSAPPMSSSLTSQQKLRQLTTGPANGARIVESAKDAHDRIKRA
substance,measurement,setting,value
"10xHis-RHO-1^Q63L (constitutively active RHO-1, 1-188 AA) (from UniProt Q22038 1-188) (domain or fragment)",binding,[1],no binding (tested: ~4 μg of each protein in 300 μl)
same,binding,[2],no binding (tested: ~4 μg of each protein in 300 μl)
